Measured values as given in US7470668B2, “Method of use of specific natriuretic peptide receptor c ligands, transgenic non-human mammals expressing specific natriuretic peptide receptor c antagonists and cells thereof” (Enobia Pharma Inc., priority 2005, dated 2008).
For part of these data: Part of at least one peptide drawing is inferred or uncertain, most often the ends. Some entries share one result that the patent states for a list of compounds. No end group written: not given here.

Assays:
NPR-C [1] = biological target: T1, NPR-C (Homo sapiens, UniProt P17342); assay: Competition of PLAP-Ostn binding on NPR-C over-expressing cells; conditions: ~30 nM PLAP-Ostn, NPR-C transfected cells; read-out: concentration competing off 50% of the binding of PLAP-mOstn
T1 construct: expressed in transfected cells; host or cells: HEK293, transient, pCDNA1.1 (CMV promoter)
T1 sequence (P17342 27-541): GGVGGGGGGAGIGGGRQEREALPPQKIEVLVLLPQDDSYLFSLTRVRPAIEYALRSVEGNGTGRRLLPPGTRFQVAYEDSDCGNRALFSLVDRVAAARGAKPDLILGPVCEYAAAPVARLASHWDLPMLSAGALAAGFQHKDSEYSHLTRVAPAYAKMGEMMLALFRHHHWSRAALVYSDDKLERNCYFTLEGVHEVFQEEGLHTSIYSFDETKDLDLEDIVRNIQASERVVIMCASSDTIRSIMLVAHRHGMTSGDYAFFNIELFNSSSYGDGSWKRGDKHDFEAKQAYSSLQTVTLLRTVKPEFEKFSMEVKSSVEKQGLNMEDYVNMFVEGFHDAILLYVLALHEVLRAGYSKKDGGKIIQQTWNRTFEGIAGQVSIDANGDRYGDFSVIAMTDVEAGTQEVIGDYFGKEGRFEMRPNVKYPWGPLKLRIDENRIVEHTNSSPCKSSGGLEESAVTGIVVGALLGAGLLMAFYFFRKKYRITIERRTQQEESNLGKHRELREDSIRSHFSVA
Text: (§1) The expression plasmid for rat GC-A containing the entire coding sequence cloned between the NheI-KpnI sites of CMV-driven pBK plasmid (Stratagene, La Jolla, Calif.) was kindly provided by Dr. A. De Léan (Département de Pharmacologie, Université de Montréal). The human NPR-C and GC-B coding sequences were amplified by RT-PCR from human embryonic kidney polyA RNA (Clontech, Palo Alto, Calif.) with the following primer pairs: NPR-C-5′-[…]-3′(forward) (SEQ ID NO: 74) and 5′-[…]-3′ (SEQ ID NO: 75) (reverse); GC-B-5′-[…]-3′ (SEQ ID NO: 76) (forward) and 5′-[…]-3′ (SEQ ID NO: 77) (reverse). The resulting PCR products were then cloned downstream of the CMV-promoter into the pCDNA1.1 plasmid (Invitrogen, Burlington, ON, Canada). All constructs were validated by DNA sequencing.

ATDC5 cells = assay: cGMP production in ATDC5 cells; type: cell-based, mouse; conditions: 0.1 μM peptide, 0.01 μM CNP
Text: To gain further insight into the cellular basis of the interaction between CNP and Ostn in endochondral bone formation, ATDC5 cells were used. These cells are a mouse chondrogenic cell line derived from embryogenic carcinoma cells (Shukunami et al., 1996). […] In another study, NPR-C was also found to be expressed in these cells and the amount of transcripts decreased in association with the chondrogenic differentiation (Fujishige et al., 1999). Therefore, ATDC5 cells are considered to be a good model to study the interaction between CNP and Ostn in vitro.
Cold and radio iodinated human Ostn[83-133] (SEQ ID NO: 41) were purchased from Phoenix Pharmaceutical co. (CA, USA). CNP was obtained from Sigma (St. Louis, USA) and rat C-ANF was purchased from Bachem (CA, USA). Cyclic GMP direct Biotrak™ EIA kit was obtained from Amersham Biosciences (Quebec, Canada) and DMEM/F-12 and PBS were obtained from Wisent (Quebec, Canada). Protease inhibitors were purchased from Roche (Quebec, Canada)
Cells, grown in 24-well plates to 90% confluence, were washed twice with PBS and incubated in DMEM/F12 containing 1 mM IBMX, a protease inhibitor cocktail (40 ul/ml of medium), 0.1% BSA with or without C-ANF (0.1 μM) or Ostn[83-133] (0.1 μM) for 10 min at 37° C. prior to the addition of varying concentrations of CNP. […] The amount of cGMP was measured with cGMP direct Biotrak™ EIA kit.

rat GC-A = biological target: T2, rat GC-A (Rattus norvegicus, UniProt P18910); assay: Intracellular cGMP in GC-A transfected HEK293 cells; type: cell-based; conditions: 10 nM peptide, 15 min
T2 construct: expressed in transfected cells; host or cells: HEK293, transient, CMV-driven pBK plasmid (gift of Dr. A. De Léan)
T2 sequence (P18910 29-1057): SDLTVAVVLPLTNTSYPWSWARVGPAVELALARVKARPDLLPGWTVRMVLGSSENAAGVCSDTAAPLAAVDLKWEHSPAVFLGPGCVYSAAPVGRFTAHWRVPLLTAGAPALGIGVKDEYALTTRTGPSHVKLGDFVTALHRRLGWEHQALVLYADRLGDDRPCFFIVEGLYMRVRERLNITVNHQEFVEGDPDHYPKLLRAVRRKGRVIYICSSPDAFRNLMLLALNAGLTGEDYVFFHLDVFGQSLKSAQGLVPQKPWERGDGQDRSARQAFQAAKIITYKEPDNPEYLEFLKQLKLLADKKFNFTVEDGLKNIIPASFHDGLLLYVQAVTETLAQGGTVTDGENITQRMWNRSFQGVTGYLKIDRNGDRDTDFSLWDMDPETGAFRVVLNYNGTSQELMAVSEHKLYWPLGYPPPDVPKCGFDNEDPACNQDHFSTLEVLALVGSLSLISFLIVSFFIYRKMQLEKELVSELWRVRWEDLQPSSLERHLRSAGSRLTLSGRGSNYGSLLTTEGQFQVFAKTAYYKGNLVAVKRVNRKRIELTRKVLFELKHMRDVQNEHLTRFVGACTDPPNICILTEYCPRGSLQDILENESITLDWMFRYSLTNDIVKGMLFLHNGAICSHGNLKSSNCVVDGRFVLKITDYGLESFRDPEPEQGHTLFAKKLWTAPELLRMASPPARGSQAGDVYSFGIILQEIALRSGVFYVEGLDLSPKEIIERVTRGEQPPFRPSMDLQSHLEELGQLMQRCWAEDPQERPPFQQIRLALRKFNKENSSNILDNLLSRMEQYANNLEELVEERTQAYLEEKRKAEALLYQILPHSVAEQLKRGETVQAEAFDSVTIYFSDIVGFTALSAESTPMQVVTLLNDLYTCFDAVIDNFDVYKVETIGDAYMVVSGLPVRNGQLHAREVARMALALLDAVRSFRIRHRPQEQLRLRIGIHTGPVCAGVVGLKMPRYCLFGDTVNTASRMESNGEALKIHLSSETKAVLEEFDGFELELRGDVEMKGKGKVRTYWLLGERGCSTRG

endogenous GC-A = biological target: T3, endogenous GC-A (Homo sapiens, UniProt P16066); assay: ANP-stimulated cGMP in GFP-transfected HEK293 cells (endogenous GC-A); conditions: co-incubation with 10 nM peptide (data not shown)
T3 sequence (P16066 33-1061): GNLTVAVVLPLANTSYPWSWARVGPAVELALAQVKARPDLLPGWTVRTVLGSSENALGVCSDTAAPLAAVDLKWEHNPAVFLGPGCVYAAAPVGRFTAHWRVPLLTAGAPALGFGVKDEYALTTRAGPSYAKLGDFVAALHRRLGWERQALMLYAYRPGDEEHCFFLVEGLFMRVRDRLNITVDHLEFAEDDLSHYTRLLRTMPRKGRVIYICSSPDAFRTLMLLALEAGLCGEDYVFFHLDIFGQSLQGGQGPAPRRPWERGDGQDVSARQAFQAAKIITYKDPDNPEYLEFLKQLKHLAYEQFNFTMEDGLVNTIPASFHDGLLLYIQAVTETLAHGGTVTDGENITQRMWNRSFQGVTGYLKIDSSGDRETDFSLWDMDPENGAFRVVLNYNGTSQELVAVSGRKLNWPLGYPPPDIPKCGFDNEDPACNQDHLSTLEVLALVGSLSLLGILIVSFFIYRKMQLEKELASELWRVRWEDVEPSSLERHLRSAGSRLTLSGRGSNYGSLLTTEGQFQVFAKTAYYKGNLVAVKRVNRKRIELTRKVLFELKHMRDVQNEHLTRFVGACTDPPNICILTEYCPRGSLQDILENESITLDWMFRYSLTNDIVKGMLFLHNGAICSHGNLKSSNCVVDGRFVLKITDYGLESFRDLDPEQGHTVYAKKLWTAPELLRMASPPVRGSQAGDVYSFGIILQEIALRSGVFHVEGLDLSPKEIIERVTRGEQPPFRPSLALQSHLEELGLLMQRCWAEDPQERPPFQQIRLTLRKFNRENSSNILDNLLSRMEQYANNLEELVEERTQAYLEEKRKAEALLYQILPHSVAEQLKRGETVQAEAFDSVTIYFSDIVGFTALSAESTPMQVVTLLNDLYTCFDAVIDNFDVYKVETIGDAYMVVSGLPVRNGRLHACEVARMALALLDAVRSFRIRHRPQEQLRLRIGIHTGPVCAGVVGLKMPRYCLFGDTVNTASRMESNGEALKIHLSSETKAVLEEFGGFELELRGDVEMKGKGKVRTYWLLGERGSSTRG

human GC-B = biological target: T4, human GC-B (Homo sapiens, UniProt P20594); assay: Intracellular cGMP in GC-B transfected HEK293 cells; type: cell-based; conditions: 10 nM peptide, 15 min
T4 construct: expressed in transfected cells; host or cells: HEK293, transient, pCDNA1.1 (CMV promoter)
T4 sequence (P20594 23-1047): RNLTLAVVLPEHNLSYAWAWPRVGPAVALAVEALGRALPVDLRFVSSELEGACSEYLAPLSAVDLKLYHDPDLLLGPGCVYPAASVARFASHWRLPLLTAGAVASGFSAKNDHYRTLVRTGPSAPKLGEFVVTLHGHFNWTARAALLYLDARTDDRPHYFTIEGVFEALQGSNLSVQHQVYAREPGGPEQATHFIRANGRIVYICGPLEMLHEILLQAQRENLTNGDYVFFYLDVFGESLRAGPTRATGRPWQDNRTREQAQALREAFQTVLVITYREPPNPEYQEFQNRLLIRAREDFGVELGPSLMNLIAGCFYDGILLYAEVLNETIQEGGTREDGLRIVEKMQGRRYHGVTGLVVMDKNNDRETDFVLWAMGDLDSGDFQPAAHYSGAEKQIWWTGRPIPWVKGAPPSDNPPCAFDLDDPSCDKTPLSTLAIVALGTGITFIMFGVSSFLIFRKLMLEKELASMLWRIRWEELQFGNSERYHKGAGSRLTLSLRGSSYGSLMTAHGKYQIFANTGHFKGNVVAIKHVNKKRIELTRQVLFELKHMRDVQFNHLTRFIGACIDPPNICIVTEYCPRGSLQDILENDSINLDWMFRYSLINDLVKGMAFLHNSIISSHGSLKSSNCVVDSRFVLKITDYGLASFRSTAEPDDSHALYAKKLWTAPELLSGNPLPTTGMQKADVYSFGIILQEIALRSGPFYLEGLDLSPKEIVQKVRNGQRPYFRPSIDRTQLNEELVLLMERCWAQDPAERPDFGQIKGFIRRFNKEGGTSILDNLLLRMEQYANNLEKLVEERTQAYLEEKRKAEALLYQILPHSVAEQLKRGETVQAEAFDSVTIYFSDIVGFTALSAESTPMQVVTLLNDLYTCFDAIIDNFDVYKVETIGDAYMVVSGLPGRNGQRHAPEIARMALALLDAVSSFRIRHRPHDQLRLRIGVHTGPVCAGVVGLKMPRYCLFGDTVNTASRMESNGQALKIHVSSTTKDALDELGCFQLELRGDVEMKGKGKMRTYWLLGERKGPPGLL

NPR-C [2] = biological target: T1, NPR-C; assay: ANP-stimulated cGMP in NPR-C overexpressing HEK293 cells; type: cell-based; conditions: NPR-C-expressing cells, 0.1 nM ANP plus 10 nM peptide
Text: as §1

CMDRIGRNRLSNSRG [Ostn[117-130], CM^117DRIGRNRLSNSRG^130]
IC50 (NPR-C [1]): > 100 nM

SFSGFGSPLDRLSAGSVDHKGKQRKVVDHPKRRFGIPMDRIGRNRLSNSRG [Ostn[83-133]]
enhancement of the effect of CNP on cGMP production (ATDC5 cells): 0.6-2 folds

YDHSKKRFGIPMDRIGRNRLSNSR-NH2 [Ostn[107-129]]
intracellular cGMP response via GC-A (rat GC-A): failed to activate
effect on ANP signalling (endogenous GC-A): no effect
intracellular cGMP response via GC-B (human GC-B): failed to activate
increase in cGMP levels (restored ANP signalling) (NPR-C [2]): 4 fold
